These results are taken from paper PMC7862700.

Only a part is listed here, and it is no random draw. At the low end of the ranking, values are background and their order means little.

For the experiment, the target named is SPI1 (UniProt P17947). In words: DAPPL (digital affinity profiling via proximity ligation, sequencing). The settings on record: 10 mM Tris-HCl pH 7.5, 50 mM NaCl, 1 mM DTT, 4% glycerol, room temperature, 30 min; GST-TFs on glutathione beads, 16-mer random dsDNA library, 0.1% …; high values mean tight binding; double strand, one strand shown; scale: fold enrichment (6-mer frequency, TF over GST control).
AACCAG returned a binding signal of 0.795.
Under AGTCAG stands 0.55.
Under ACGGGG stands 0.619.
ATCGTA had a binding signal of 0.803.
AGTCTG registered a binding signal of 0.686.
In the case of GTTGGA it was 0.53.
In turn, CGCAGA yielded a binding signal of 0.777.
Under AGCGCG stands 0.781.
In the case of ATGAGA it was 0.825.
In the case of AGGGCG it was 0.552; in that of GAGTGC, 0.575.
The sequence CTGGAG returned a binding signal of 0.643.
In the case of CACGGT it was 0.859; in that of GTGTGA, 0.627; in that of GAGCGA, 0.614.
For ACGAGT, the binding signal is 0.766.
In the case of CGCATG it was 0.604; in that of GCTGTC, 0.886.
Under GGGAAT stands 0.839; under GGGACT, 0.622; under GTAAGA, 0.79.
Under GGGCCA stands 0.658; under AGGCGG, 0.252.
On to AGGACT, for which the binding signal amounted to 0.831.
In the case of GCAAGA it was 0.742.
Under CGGTGA stands 0.439.
In the case of GGGTGT it was 0.69; in that of TCAGGG, 0.802; in that of GTCGCT, 0.798.
For the sequence GCGGGA, the binding signal is 0.376.
Under AAGAGC stands 0.854; under CCAGTG, 0.435.
Under GCGCAT stands 0.832; under GATCGC, 0.786.
The sequence GCCAAG registered a binding signal of 0.828.
In the case of GCGCAA it was 0.81.
Under GTGAAT stands 0.94; under CAGCAA, 0.912.
Under CAGACC stands 0.796.
On to TTGTCG, for which the binding signal stood at 0.876.
